Results are given in words; binding and its absence hold for the method and conditions named. For part of these data: Binding seen in cells or lysates may run through a third protein. Some binding calls cover weakened binding; strength is not graded here. For part of these data: Where a sequence is shown, tags or fusion partners need not be part of it.
T1: gel-purified GST-tagged Mitofilin (expressed in E. coli) (UniProt Q16891)
T1 sequence (looked up): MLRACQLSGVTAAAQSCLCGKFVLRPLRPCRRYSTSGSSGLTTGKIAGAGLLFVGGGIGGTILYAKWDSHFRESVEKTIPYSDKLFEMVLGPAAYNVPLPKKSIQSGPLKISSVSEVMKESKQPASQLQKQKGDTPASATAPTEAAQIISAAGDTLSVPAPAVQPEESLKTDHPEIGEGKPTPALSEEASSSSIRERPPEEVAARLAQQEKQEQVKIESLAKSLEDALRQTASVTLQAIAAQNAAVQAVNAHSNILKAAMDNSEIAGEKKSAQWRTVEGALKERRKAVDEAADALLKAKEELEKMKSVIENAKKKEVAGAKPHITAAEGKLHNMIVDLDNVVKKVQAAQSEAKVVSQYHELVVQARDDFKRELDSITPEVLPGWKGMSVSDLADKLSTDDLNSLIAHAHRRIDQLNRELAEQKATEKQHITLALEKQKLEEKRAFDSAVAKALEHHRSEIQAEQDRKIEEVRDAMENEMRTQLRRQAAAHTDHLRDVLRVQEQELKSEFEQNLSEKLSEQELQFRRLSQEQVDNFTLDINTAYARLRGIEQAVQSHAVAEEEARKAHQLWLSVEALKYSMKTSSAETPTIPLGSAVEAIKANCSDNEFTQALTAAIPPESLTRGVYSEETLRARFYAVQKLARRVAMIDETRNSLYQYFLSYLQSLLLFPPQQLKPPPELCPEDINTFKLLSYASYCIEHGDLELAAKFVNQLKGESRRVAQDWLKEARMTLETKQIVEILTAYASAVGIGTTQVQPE

T2: endogenous Mitofilin (human) (UniProt Q16891)
T2 sequence (looked up): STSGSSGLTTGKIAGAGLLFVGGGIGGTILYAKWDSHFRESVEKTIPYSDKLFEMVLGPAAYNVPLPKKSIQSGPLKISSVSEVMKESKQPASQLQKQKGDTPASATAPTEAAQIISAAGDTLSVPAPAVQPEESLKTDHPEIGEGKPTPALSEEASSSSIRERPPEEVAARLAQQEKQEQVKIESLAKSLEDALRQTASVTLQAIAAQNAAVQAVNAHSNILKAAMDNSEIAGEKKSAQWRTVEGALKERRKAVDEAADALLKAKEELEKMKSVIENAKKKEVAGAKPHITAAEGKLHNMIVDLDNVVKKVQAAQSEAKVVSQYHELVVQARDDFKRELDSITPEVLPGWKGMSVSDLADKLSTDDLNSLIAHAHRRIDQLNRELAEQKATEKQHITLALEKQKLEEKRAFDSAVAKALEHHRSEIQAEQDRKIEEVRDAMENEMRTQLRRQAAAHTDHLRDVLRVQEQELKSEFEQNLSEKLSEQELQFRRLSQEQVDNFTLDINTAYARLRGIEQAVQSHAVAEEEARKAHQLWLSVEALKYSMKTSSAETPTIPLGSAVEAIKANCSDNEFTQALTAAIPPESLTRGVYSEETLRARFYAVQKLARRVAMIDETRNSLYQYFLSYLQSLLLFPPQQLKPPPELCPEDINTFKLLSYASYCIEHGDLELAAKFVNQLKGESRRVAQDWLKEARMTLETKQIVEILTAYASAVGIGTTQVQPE

B1: S-tagged CHCM1/CHCHD6 deletion variant lacking the N-terminal 50 amino acids (protein, not shown: small tags and cut ends)
chain: STFGLQDGNLRAPHKESTLPRSGSSGGQQPSGMKEGVKRYEQEHAAIQDKLFQVAKREREAATKHSKASLPTGEGSISHEEQKSVRLARELESREAELRRRDTFYKEQLERIERKNAEMYKLSSEQFHEAASKMESTIKPRRVEPVCSGLQAQILHCYRDRPHEVLLCSDLVKAYQRCVSAAHKG
B2: S-tagged CHCM1/CHCHD6 deletion variant lacking the N-terminal 100 amino acids (protein, not shown: small tags and cut ends)
chain: LFQVAKREREAATKHSKASLPTGEGSISHEEQKSVRLARELESREAELRRRDTFYKEQLERIERKNAEMYKLSSEQFHEAASKMESTIKPRRVEPVCSGLQAQILHCYRDRPHEVLLCSDLVKAYQRCVSAAHKG
B3: endogenous CHCM1/CHCHD6 (protein)
chain: GSTESSEGRRVSFGVDEEERVRVLQGVRLSENVVNRMKEPSSPPPAPTSSTFGLQDGNLRAPHKESTLPRSGSSGGQQPSGMKEGVKRYEQEHAAIQDKLFQVAKREREAATKHSKASLPTGEGSISHEEQKSVRLARELESREAELRRRDTFYKEQLERIERKNAEMYKLSSEQFHEAASKMESTIKPRRVEPVCSGLQAQILHCYRDRPHEVLLCSDLVKAYQRCVSAAHKG

What was measured:
[1] = molecular target: T1, gel-purified GST-tagged Mitofilin (expressed in E. coli); test: S-tag pull-down of purified proteins, Western blot
[2] = molecular target: T2, endogenous Mitofilin (human); test: introduction of Example 1, summing up its results
[3] = molecular target: T2, endogenous Mitofilin (human); test: restates the pull-down and immunoprecipitation of FIG. 7
[4] = molecular target: T2, endogenous Mitofilin (human); test: immunoprecipitation from RKO and MCF7 cell lysates, Western blot
[5] = molecular target: T2, endogenous Mitofilin (human); test: immunoprecipitation with anti-CHCM1/CHCHD6 antibody, Western blot

| Binder | binding [1] | binding [2] | binding [3] | binding [4] | binding [5] |
| --- | --- | --- | --- | --- | --- |
| B1 | binds | – | – | – | – |
| B2 | binds | – | – | – | – |
| B3 | – | binds | binds | binds | binds |

From patent publication US20140170241A1
